Experimental data from publication PMC7093135.
No constants are given. Whether binding was seen depends on the method and setting. Binding seen in cells or lysates may run through a third protein. These calls come from enrichment with a bait or labelling near it, and not all partners need be listed.

Amino acid sequences for entries named in this document (tags omitted). Residues count along the entry.
UniProt P63168: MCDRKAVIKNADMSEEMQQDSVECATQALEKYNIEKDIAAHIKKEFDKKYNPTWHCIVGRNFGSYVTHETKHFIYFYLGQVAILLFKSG
UniProt P01887, residues 21-119: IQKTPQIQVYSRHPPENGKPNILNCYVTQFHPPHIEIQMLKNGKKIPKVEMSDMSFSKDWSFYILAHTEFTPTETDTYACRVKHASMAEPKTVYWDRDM
UniProt P62821: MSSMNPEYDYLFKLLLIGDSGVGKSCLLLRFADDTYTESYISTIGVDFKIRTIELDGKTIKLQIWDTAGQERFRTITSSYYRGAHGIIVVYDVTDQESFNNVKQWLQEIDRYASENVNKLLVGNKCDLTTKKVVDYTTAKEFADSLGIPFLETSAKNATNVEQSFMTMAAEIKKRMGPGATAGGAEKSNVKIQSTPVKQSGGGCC
UniProt P63024: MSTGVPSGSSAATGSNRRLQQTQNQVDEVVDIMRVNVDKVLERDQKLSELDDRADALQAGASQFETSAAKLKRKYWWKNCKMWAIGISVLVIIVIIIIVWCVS

B1: Snx2 (protein, UniProt Q9CWK8 1-519)
chain: MAAEREPPPLGDVKPTDFEELEDGEDLFTSTVSTLESSPSSPEPASLPAEDISANSNGSKPVEVVLDDDREDLFAEATEEVSLDSPERELILSSEPSPAVTPVTPTTLIAPRIESKSISAPVIFDRSRDEIEEEANGDIFDIEIGVSDPEKVGDGMNAYMAYRVTTKTSLSMFSKSEFSVKRRFSDFLGLHSKLASKYLHVGYIVPPAPEKSIVGMTKVKVGKEDSSSTEFVEKRRAALERYLQRTVKHPTLLQDPDLRQFLESSELPRAVNTQALSGAGILRMVNKAADAVNKMTIKMNESDAWFEEKQQQFENLDQQLRKLHASVEALVCHRKELSANTAAFAKSAAMLGNSEDHTALSRALSQLAEVEEKIDQLHQEQAFADFYMFSELLSDYIRLIAAVKGVFDHRMKCWQKWEDAQITLLKKRETEAKMMVANKPDKIQQAKNEIREWEAKVQQGERDFEQISKTIRKEVGRFEKERVKDFKAVIIKYLESLVQTQQQLIKYWEAFLPEAKAIA
B2: Canx (protein, UniProt P35564 21-591)
chain: HDGHDDDAIDIEDDLDDVIEEVEDSKSKSDASTPPSPKVTYKAPVPTGEVYFADSFDRGSLSGWILSKAKKDDTDDEIAKYDGKWEVDEMKETKLPGDKGLVLMSRAKHHAISAKLNKPFLFDTKPLIVQYEVNFQNGIECGGAYVKLLSKTAELSLDQFHDKTPYTIMFGPDKCGEDYKLHFIFRHKNPKTGVYEEKHAKRPDADLKTYFTDKKTHLYTLILNPDNSFEILVDQSVVNSGNLLNDMTPPVNPSREIEDPEDRKPEDWDERPKIADPDAVKPDDWDEDAPSKIPDEEATKPEGWLDDEPEYIPDPDAEKPEDWDEDMDGEWEAPQIANPKCESAPGCGVWQRPMIDNPNYKGKWKPPMIDNPNYQGIWKPRKIPNPDFFEDLEPFKMTPFSAIGLELWSMTSDIFFDNFIISGDRRVVDDWANDGWGLKKAADGAAEPGVVLQMLEAAEERPWLWVVYILTVALPVFLVILFCCSGKKQSNAMEYKKTDAPQPDVKDEEGKEEEKNKRDEEEEEEKLEEKQKSDAEEDGVTGSQDEEDSKPKAEEDEILNRSPRNRKPRRE

What follows are molecules tested against Dynein light chain 1 (Dynll1) (mouse (endogenous in DC2.4)) (UniProt P63168) (assay: affinity purification with mass spectrometry; Dynll1 immunoprecipitated from RIPA lysates of DC2.4 cells (no infection or infected with L. monocytogenes for 6.5 h) on protein A-agarose, HPLC-MS; proteins found in the IgG control subtracted).
B2m (from UniProt P01887 21-119) was tested, and the binding was “binds”.
Rab1a (from UniProt P62821 1-205) was tested, and the binding was “binds”.
In the case of Vamp3 (from UniProt P63024 1-103), the binding is reported as “binds”.
For B1, the binding was “binds”.
In the case of B2, the binding is reported as “binds”.
